We go through one molecule from patent publication US20050059588A1, “Peptides which generate antibodies resulting in lysis of pathologically adherent erythrocytes” (REGENTS OF THE UNIVERSITY OF CALIFORNIA, priority 2003, published 2005).

Amino acid sequences for entries named in this document (tags omitted). A change or cut given only in a name is not applied to a line headed by its entry.
UniProt P16671: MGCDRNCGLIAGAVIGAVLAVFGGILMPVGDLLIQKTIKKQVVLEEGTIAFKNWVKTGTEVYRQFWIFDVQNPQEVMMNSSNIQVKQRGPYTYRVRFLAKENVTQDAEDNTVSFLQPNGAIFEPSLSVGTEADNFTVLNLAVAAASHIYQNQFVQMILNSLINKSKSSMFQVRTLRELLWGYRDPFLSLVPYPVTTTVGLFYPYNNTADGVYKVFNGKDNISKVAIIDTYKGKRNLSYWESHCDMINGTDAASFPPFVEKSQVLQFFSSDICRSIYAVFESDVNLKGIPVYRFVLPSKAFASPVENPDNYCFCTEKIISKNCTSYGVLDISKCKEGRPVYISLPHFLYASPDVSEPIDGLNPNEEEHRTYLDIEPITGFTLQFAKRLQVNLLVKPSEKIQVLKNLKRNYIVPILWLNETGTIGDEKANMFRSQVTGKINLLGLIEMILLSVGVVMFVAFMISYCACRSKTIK

No constants are given. Whether binding was seen depends on the method and setting. Binding calls can cover weak binding; strength is not graded here.

For the test, the target named is Partially purified CD36 (CD36 fraction) from human platelets, immobilized (human) (UniProt P16671). The test is described as follows: cytoadherence inhibition: immobilized CD36 pretreated with peptide, bound IEs counted.

B1: DBR peptide (peptide derived from the DIDS binding region of human AE1) (peptide)
peptide: YETFSKLIKIFQDH
Take B1: the binding result is given as “binds”.
